Results published in the supplement of paper PMC10849652.
The list shows a part of the results.

Chains of the proteins cited; added tags and fusions are not shown. Lines headed by an entry give the natural chain unless they say otherwise; changes in a name come on top.
UniProt Q9NUQ7: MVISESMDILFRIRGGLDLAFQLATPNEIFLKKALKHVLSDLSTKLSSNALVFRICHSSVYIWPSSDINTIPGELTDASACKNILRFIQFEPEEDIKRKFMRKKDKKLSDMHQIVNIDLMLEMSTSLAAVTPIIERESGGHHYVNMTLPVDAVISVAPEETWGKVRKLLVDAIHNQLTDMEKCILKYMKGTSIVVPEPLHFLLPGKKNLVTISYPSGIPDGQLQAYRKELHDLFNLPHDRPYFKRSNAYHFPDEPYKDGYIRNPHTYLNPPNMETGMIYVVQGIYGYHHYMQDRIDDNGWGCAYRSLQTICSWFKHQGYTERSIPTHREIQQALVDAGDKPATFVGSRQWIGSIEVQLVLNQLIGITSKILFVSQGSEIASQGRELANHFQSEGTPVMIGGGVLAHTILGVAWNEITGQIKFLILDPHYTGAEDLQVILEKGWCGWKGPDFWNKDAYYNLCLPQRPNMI
UniProt P14927: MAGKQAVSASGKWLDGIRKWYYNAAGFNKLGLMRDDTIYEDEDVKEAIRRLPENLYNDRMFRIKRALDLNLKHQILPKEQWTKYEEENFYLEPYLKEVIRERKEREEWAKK
UniProt O60763: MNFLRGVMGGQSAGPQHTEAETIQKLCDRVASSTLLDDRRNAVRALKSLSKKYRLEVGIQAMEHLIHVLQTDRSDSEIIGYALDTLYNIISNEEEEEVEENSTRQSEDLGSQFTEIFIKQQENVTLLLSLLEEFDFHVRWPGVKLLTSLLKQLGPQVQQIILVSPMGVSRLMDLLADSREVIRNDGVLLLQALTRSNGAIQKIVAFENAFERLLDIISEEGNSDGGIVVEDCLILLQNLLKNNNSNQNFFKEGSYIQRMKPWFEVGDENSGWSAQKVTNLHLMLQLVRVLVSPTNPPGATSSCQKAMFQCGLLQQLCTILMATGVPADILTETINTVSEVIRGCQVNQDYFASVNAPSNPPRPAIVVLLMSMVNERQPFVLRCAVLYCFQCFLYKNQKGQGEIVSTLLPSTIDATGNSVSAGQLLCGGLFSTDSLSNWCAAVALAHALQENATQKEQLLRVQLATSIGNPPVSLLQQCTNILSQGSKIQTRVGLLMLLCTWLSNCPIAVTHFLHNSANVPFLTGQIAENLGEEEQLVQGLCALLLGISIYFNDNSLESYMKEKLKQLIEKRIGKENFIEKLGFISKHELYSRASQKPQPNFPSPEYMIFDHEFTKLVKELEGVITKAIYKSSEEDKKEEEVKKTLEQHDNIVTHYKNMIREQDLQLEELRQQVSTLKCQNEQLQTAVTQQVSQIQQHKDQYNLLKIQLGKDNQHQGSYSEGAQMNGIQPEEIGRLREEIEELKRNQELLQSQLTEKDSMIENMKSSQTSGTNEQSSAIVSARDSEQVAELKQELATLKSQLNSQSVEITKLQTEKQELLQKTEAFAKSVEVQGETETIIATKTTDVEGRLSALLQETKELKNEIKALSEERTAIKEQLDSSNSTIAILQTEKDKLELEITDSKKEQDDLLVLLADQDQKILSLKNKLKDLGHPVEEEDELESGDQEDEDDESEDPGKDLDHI
UniProt Q9BTM9: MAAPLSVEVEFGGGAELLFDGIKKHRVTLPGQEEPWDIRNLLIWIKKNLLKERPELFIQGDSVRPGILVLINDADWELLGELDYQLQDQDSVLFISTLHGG
UniProt P11172: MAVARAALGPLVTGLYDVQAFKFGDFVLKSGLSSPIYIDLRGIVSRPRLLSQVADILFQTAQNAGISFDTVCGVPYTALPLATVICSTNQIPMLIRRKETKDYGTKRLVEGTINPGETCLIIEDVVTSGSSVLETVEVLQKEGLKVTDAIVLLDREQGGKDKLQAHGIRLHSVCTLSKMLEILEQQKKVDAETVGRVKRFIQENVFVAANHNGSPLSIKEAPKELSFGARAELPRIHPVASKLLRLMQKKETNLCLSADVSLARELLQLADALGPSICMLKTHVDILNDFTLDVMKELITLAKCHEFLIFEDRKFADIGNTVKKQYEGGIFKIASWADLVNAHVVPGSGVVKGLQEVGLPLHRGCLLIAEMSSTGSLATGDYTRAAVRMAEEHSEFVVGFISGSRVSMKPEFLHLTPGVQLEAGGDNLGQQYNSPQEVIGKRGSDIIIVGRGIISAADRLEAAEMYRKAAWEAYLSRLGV
UniProt P08670, whole entry, looked up: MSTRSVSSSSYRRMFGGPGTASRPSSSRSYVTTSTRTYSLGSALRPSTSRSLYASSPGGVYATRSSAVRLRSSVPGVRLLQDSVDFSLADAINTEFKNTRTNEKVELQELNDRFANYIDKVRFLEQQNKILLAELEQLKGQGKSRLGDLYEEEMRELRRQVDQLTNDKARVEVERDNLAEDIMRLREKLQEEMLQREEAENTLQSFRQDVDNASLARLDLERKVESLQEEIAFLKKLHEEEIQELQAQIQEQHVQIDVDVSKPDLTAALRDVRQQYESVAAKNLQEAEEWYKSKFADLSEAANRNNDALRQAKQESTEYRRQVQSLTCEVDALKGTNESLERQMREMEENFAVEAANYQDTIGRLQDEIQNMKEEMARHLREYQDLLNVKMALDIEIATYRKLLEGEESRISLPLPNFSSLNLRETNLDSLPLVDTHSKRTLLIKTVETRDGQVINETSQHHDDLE
UniProt Q13107: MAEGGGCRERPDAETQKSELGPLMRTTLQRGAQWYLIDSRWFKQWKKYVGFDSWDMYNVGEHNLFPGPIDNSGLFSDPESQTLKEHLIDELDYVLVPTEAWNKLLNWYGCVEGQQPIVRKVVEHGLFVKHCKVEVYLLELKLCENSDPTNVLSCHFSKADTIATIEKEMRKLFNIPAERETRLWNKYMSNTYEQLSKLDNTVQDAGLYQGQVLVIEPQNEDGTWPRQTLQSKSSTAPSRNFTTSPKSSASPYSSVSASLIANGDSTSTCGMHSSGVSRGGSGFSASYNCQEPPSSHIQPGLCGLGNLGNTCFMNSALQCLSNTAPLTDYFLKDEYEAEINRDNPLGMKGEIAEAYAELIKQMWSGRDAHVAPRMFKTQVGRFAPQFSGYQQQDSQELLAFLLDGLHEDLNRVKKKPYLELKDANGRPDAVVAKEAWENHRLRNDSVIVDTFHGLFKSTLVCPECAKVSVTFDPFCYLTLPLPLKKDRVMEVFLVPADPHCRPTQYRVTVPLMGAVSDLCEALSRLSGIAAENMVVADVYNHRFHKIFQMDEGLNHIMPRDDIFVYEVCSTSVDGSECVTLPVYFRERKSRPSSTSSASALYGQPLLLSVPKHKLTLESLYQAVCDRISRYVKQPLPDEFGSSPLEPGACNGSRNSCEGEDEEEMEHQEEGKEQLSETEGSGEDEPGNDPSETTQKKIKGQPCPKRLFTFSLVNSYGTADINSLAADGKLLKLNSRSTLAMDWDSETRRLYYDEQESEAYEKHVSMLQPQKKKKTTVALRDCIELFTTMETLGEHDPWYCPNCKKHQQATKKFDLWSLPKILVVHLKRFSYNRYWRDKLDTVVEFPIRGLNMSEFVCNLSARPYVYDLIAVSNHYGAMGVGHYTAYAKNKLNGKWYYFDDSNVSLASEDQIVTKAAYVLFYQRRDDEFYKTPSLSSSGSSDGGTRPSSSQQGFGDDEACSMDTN
UniProt Q9BRT2: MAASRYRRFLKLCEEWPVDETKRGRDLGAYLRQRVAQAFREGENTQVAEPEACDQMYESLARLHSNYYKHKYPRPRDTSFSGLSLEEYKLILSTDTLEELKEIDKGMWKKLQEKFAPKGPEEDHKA
UniProt P22415: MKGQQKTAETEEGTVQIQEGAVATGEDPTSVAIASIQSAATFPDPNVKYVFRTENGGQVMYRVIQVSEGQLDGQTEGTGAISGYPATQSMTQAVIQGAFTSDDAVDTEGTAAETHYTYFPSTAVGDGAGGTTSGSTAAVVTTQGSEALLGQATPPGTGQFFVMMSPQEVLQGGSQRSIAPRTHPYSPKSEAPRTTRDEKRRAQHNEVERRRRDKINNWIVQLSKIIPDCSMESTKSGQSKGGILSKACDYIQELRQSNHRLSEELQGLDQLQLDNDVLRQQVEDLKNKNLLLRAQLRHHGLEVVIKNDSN
UniProt P51809, whole entry, looked up: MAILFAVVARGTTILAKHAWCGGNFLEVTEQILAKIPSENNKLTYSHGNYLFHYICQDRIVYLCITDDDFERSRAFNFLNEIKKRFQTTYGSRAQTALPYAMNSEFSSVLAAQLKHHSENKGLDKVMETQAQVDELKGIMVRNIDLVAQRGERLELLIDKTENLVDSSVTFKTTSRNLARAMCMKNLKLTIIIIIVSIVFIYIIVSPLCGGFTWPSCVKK
UniProt Q9Y5T5, whole entry, looked up: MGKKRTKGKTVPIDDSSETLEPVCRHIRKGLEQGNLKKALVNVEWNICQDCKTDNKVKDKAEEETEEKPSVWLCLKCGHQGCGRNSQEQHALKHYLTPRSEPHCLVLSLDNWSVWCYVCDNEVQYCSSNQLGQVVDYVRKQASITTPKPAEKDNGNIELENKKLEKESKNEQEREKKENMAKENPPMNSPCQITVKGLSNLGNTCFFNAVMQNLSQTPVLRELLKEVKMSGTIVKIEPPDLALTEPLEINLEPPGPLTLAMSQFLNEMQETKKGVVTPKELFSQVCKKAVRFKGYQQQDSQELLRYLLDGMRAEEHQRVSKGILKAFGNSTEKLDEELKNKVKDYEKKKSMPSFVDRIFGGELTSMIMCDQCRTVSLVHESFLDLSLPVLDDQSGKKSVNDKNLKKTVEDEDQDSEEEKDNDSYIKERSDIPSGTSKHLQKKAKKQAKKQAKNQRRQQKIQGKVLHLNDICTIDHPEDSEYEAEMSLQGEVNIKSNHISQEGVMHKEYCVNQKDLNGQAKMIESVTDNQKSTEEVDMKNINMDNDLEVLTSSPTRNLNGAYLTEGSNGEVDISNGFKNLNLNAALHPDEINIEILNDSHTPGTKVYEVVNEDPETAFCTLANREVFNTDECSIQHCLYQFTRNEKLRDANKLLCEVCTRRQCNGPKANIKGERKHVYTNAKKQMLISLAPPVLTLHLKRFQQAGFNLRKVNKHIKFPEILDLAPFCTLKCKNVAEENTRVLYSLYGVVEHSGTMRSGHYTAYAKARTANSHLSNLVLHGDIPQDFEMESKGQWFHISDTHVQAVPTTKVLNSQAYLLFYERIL
UniProt Q53GS9: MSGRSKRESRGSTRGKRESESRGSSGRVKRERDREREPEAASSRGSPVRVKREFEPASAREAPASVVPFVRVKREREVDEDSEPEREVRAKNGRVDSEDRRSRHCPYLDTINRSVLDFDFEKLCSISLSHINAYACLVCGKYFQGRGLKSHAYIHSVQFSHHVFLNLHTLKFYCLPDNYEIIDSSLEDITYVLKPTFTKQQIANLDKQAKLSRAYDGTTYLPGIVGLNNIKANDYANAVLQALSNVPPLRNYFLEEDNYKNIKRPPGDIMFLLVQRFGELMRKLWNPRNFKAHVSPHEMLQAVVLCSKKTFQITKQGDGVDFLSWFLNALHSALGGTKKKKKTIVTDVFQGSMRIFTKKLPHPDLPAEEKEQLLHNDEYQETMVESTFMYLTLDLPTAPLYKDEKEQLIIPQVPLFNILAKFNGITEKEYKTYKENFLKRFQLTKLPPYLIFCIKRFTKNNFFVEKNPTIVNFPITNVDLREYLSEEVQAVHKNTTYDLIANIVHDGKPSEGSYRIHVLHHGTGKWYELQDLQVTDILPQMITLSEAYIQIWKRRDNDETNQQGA
UniProt O75379: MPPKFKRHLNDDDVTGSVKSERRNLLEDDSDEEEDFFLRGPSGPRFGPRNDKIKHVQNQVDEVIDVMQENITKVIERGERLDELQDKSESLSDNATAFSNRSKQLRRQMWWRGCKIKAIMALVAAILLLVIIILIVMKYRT
UniProt Q96T88: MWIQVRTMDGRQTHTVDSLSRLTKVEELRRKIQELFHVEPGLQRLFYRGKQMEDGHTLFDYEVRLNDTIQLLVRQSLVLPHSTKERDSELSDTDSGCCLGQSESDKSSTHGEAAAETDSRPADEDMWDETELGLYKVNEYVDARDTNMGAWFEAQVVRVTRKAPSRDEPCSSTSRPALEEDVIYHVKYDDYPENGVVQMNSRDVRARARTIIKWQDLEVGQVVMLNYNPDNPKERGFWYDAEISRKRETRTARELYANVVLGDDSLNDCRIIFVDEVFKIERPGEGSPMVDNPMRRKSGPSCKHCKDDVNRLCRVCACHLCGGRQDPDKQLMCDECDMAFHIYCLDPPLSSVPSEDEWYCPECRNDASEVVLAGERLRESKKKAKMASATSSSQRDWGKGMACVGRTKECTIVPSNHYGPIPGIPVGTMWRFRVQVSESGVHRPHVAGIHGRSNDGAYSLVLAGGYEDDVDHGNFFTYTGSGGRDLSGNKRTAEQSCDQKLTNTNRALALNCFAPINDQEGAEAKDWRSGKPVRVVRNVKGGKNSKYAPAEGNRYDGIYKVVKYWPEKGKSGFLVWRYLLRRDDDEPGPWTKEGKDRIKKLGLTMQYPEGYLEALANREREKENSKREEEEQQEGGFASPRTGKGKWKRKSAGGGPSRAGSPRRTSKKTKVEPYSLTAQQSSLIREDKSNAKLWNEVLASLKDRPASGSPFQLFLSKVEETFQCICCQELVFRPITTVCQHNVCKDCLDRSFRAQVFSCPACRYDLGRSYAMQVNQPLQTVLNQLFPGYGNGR

How the values were obtained:
Assay in all cases: log2 fold change, soluble protein after heating vs DMSO (PISA); higher = thermal stabilisation; K562 lysate, 10 uM; active = over 0.2 and 3.5 SD of the protein, either way, in both replicates (recomputed)
[1] = compound: C1=CC=C(C=C1)[C@H](COC2=CC3=C(C=C2)NC(=O)N3)NC(=O)C4=CC=CN(C4=O)CC5=CC(=C(C=C5)F)F
Procedure, shortened: (§1)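 Following dounce homogenisation of K562 pellets in PBS pH 7.4 with 1 mM MgCl2, crude extract at 1 mg/mL protein was incubated for 30 min with 10 μM compound. Aliquots were then heated for 3 min over 48°C-58°C and pooled, NP-40 was added to 0.5% at 4°C, and soluble protein was recovered as the supernatant at 21,000xg for 90 min. Channel-sum-equalised TMTpro 16plex LC-MS/MS quantified this protein. Each value, from duplicates, is a log-two fold change in thermal stability relative to solvent controls.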

[2] = compound: CC1=C(SC2=C1C(=N[C@H](C3=NN=C(N32)C)CC(=O)N)C4=CC=C(C=C4)Cl)C
Procedure, shortened: as §1

[3] = compound: CC1=C2C(=CC=C1)N=C(N(C2=O)C3=CC=CC=C3C)CN4C=NC5=C(N=CN=C54)N
Procedure, shortened: as §1

[4] = compound: Cc1sc2c(c1C)C(c1ccc(Cl)cc1)=N[C@@H](CC(=O)OC(C)(C)C)c1nnc(C)n1-2
Procedure, shortened: as §1

[5] = compound: c1ccc([C@@H]2C[C@H]2NC2CCNCC2)cc1
Procedure, shortened: as §1

Measured: log2 fold change

VARS (UniProt P26640)
inactive: [1] -0.022 | [2] 0.013 | [3] 0.013 | [4] 0 | [5] 0.031

UROD (UniProt H0Y5R6)
inactive: [1] -0.026 | [2] -0.082 | [3] 0.02

USF3 (UniProt Q68DE3)
inactive: [1] -0.104 | [2] 0.082

VANGL1 (UniProt Q8TAA9)
inactive: [1] 0.064 | [2] 0.088 | [3] -0.055 | [4] -0.004 | [5] -0.076

VCP (UniProt P55072)
inactive: [1] 0.021 | [2] 0.008 | [3] -0.019 | [4] -0.023 | [5] 0.016

UFSP2 (UniProt Q9NUQ7)
inactive: [1] 0.059 | [2] 0 | [3] 0.057 | [4] -0.04 | [5] 0.022

UQCRB (UniProt P14927)
inactive: [1] 0.034 | [2] -0.025 | [3] -0.042 | [4] -0.009 | [5] -0.027

USO1 isoform 2 (UniProt O60763)
inactive: [1] 0.005 | [2] 0.005 | [3] 0.004 | [4] 0.004 | [5] 0.009

VIPAS39 (UniProt Q9H9C1)
inactive: [1] 0.004 | [2] 0.028 | [3] 0.129 | [4] -0.095 | [5] -0.034

UROS (UniProt P10746)
inactive: [1] -0.04 | [2] 0.004 | [3] 0.036 | [4] 0.059 | [5] 0.048

ULBP1 (UniProt Q9BZM6)
inactive: [1] 0.048 | [2] -0.033 | [3] 0.003 | [4] -0.003 | [5] -0.192

USP3 (UniProt Q9Y6I4)
inactive: [1] 0.026 | [2] 0.006 | [3] -0.056 | [4] -0.044 | [5] 0.073

VAV3 isoform 4 (UniProt Q9UKW4)
inactive: [1] 0.089 | [2] -0.012 | [3] 0.096 | [4] 0.001 | [5] -0.391

UQCRC2 (UniProt P22695)
inactive: [1] 0.003 | [2] 0.037 | [3] -0.007 | [4] 0.006 | [5] -0.015

UFL1 (UniProt O94874)
inactive: [1] -0.011 | [2] 0.014 | [3] 0.009 | [4] 0.004 | [5] 0.013

USP7 (UniProt Q93009)
inactive: [1] -0.013 | [2] -0.007 | [3] 0.006 | [4] 0.007 | [5] -0.009

VCL (UniProt P18206)
inactive: [1] 0.001 | [2] 0.006 | [3] 0 | [4] -0.032 | [5] -0.044

URM1 isoform 2 (UniProt Q9BTM9)
inactive: [1] 0.116 | [2] -0.003 | [3] 0.072 | [4] -0.011 | [5] 0.094

VCPIP1 (UniProt Q96JH7)
inactive: [1] -0.025 | [2] -0.008 | [3] 0.002 | [4] -0.052 | [5] -0.002

VAPB (UniProt O95292)
inactive: [1] 0.016 | [2] -0.03 | [3] 0.017 | [4] 0.053 | [5] -0.008

UMPS (UniProt P11172)
inactive: [1] -0.021 | [2] 0.02 | [3] -0.006 | [4] 0.019 | [5] 0.04

VIM (UniProt P08670)
inactive: [1] 0.001 | [2] -0.028 | [3] -0.01 | [4] 0.007 | [5] 0.073

UTP14A (UniProt Q9BVJ6)
inactive: [1] 0.017 | [2] 0.004 | [3] 0.035 | [4] -0.037 | [5] -0.024

UVRAG (UniProt Q9P2Y5)
inactive: [1] -0.028 | [2] -0.029 | [3] -0.007 | [4] 0.06 | [5] -0.013

UFD1 isoform 1 (UniProt Q92890)
inactive: [1] 0.049 | [2] 0.012 | [3] -0.017 | [4] 0.007 | [5] -0.021

VIL1 (UniProt P09327)
inactive: [1] -0.057 | [2] -0.234 | [3] 0.074 | [4] -0.098 | [5] -0.143

USP8 (UniProt P40818)
inactive: [1] -0.018 | [2] 0.016 | [3] 0.01 | [4] 0.009 | [5] 0.036

USP13 (UniProt Q92995)
inactive: [1] -0.182 | [2] -0.091 | [3] -0.089 | [4] 0.083 | [5] 0.019

USP4 (UniProt Q13107)
inactive: [1] 0.015 | [2] 0.103 | [3] 0.009 | [4] -0.001 | [5] 0.056

UQCC2 (UniProt Q9BRT2)
inactive: [1] 0.008 | [2] 0.019 | [3] -0.056 | [4] -0.057 | [5] 0.095

VDAC2 (UniProt Q5JSD1)
inactive: [1] 0.078 | [2] -0.067 | [3] -0.071 | [4] -0.071 | [5] -0.065

USF1 (UniProt P22415)
inactive: [1] -0.024 | [2] 0.037 | [3] 0.016 | [4] 0.002 | [5] -0.053

UTP11 (UniProt Q9Y3A2)
inactive: [1] -0.289 | [2] 0.051 | [3] 0.114 | [4] 0.147 | [5] -0.017

UHRF1BP1L (UniProt A0JNW5)
inactive: [1] 0.019 | [2] 0.024 | [3] 0.014 | [4] 0.008 | [5] 0.024

VAMP7 (UniProt P51809)
inactive: [1] -0.001 | [2] 0.04 | [3] -0.009 | [4] -0.024 | [5] -0.004

VEZF1 (UniProt Q14119)
inactive: [1] 0.107 | [2] -0.049 | [3] 0.016 | [4] 0.03 | [5] -0.027

USP32 (UniProt Q8NFA0)
inactive: [1] -0.007 | [2] 0.034 | [3] 0.073 | [4] -0.039 | [5] -0.012

UHRF1BP1 (UniProt Q6BDS2)
inactive: [1] -0.001 | [2] 0.038 | [3] -0.008 | [4] 0.032 | [5] -0.01

VAV1 (UniProt P15498)
inactive: [1] -0.025 | [2] 0.001 | [3] -0.011 | [4] -0.017 | [5] -0.068

Copied from above (two entries):
VEZF1 (UniProt Q14119)
inactive: [1] 0.107 | [2] -0.049 | [3] 0.016 | [4] 0.03 | [5] -0.027

USP32 (UniProt Q8NFA0)
inactive: [1] -0.007 | [2] 0.034 | [3] 0.073 | [4] -0.039 | [5] -0.012

The listing continues:

USP16 (UniProt Q9Y5T5)
inactive: [1] 0.047 | [2] -0.015 | [3] 0.011 | [4] 0.038 | [5] -0.002

USP39 (UniProt Q53GS9)
inactive: [1] 0.02 | [2] -0.013 | [3] 0.032 | [4] -0.022 | [5] 0.042

UFM1 (UniProt P61960)
inactive: [1] 0.015 | [2] -0.085 | [3] -0.103 | [4] -0.019 | [5] 0.297

UNK (UniProt Q9C0B0)
inactive: [1] -0.003 | [2] -0.021 | [3] -0.024 | [4] -0.028 | [5] -0.044

UXT isoform 2 (UniProt Q9UBK9)
inactive: [1] 0.033 | [2] 0.026 | [3] 0.008 | [4] -0.053 | [5] -0.071

VAMP4 (UniProt O75379)
inactive: [1] 0.077 | [2] -0.06 | [3] -0.004 | [4] -0.038 | [5] -0.045

USP24 (UniProt Q9UPU5)
inactive: [1] -0.032 | [2] -0.011 | [3] 0.002 | [4] 0.011 | [5] 0.026

VARS2, A0A0G2JL52
inactive: [1] 0.01 | [2] 0.023 | [3] 0.041 | [4] 0.005 | [5] -0.023

UNC45A (UniProt Q9H3U1)
inactive: [1] -0.036 | [2] -0.011 | [3] 0.036 | [4] 0.004 | [5] 0.039

USP47 isoform 4 (UniProt Q96K76)
inactive: [1] 0.003 | [2] 0.01 | [3] 0.018 | [4] -0.005 | [5] 0.029

UHRF1 isoform 2 (UniProt Q96T88)
inactive: [1] -0.13 | [2] -0.002 | [3] 0.026 | [4] 0.017 | [5] -0.003

USE1 (UniProt Q9NZ43)
inactive: [1] 0.006 | [2] 0.008 | [3] -0.119 | [4] -0.109 | [5] -0.002

UNC93B1 (UniProt Q9H1C4)
inactive: [1] -0.069 | [2] 0.059 | [3] 0.034 | [4] -0.053 | [5] -0.029

UPF2 (UniProt Q9HAU5)
inactive: [1] 0.012 | [2] 0.013 | [3] 0.009 | [4] 0.009 | [5] 0.024

USP14 (UniProt P54578)
inactive: [1] -0.007 | [2] 0.007 | [3] 0.026 | [4] 0.038 | [5] 0.044
